Assay results reported in the supplement of paper PMC7411640.
The list shows a part of the results. This data set is noisy: repeats of one test often differ as much as different tests do.

System: MDA-MB-468
Assay: phospho-S6 immunofluorescence (DAPI-normalised), per-plate z-score; higher = higher phospho-S6 signal (less pathway suppression)
Details: 24 h
Experimental: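 GPCR-targeted compound library (MedChemExpress HY-L006) tested on MDA-MB-468 PTEN-null TNBC cells in 384-well plates at 0.1, 1 or 10 uM, combined with vehicle, GDC0941 450 nM or lapatinib 1 uM, for 24 h. Phospho-S6 (S240/244) immunofluorescence normalised to DAPI and expressed as a per-plate z-score; values are the mean of biological triplicates.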

[1] = compound 0.1 µM, co-treatment: GDC0941 450 nM
[2] = compound 0.1 µM, co-treatment: lapatinib 1 uM
[3] = compound 0.1 µM, co-treatment: vehicle
[4] = compound 1 µM, co-treatment: GDC0941 450 nM
[5] = compound 1 µM, co-treatment: lapatinib 1 uM
[6] = compound 1 µM, co-treatment: vehicle
[7] = compound 10 µM, co-treatment: GDC0941 450 nM
[8] = compound 10 µM, co-treatment: lapatinib 1 uM
[9] = compound 10 µM, co-treatment: vehicle

Row | SMILES | phospho-S6 immunofluorescence (z-score) [1] | phospho-S6 immunofluorescence (z-score) [2] | phospho-S6 immunofluorescence (z-score) [3] | phospho-S6 immunofluorescence (z-score) [4] | phospho-S6 immunofluorescence (z-score) [5] | phospho-S6 immunofluorescence (z-score) [6] | phospho-S6 immunofluorescence (z-score) [7] | phospho-S6 immunofluorescence (z-score) [8] | phospho-S6 immunofluorescence (z-score) [9]
1 | CC(O)Cn1cnc2c1c(=O)n(C)c(=O)n2C (stereo unspecified) [Proxyphylline] | -0.49 | 0.45 | -0.6 | -0.37 | -0.02 | -0.54 | 0.64 | 0.19 | -0.72
2 | CC(C)C[C@H](NC(=O)[C@@H](COC(C)(C)C)NC(=O)[C@H](Cc1ccc(O)cc1)NC(=O)[C@H](CO)NC(=O)[C@H](Cc1c[nH]c2ccccc12)NC(=O)[C@H](Cc1cnc[nH]1)NC(=O)[C@@H]1CCC(=O)N1)C(=O)N[C@@H](CCCNC(=N)N)C(=O)N1CCC[C@H]1C(=O)NNC(N)=O [Goserelin (acetate)] | -0.09 | 1.14 | 0.78 | -0.75 | 0.17 | -2.7 | -1.26 | 0.37 | 0.21
3 | CC[C@H](C)[C@@H]1NC(=O)[C@H](Cc2ccc(O)cc2)NC(=O)[C@@H](N)CSSC[C@@H](C(=O)N2CCC[C@H]2C(=O)N[C@@H](CC(C)C)C(=O)NCC(N)=O)NC(=O)[C@H](CC(N)=O)NC(=O)[C@H](CCC(N)=O)NC1=O [Oxytocin (acetate)] | -1.02 | -1.04 | -1.6 | -1.21 | 0.01 | 0.33 | -0.77 | -0.07 | -0.87
4 | CCCCc1ncc(/C=C(\Cc2cccs2)C(=O)O)n1Cc1ccc(C(=O)O)cc1 [Eprosartan (mesylate)] | -0.01 | -0.01 | -0.1 | 0.77 | -0.19 | 0.99 | 0.37 | 0.05 | 0.01
